# Test results reported in article PMC7819943, “Rice protein-binding microarrays: a tool to detect cis-acting elements near promoter regions in rice”.
# Chains of the proteins cited; added tags and fusions are not shown.
# UniProt Q0JBA9, entry or part of it: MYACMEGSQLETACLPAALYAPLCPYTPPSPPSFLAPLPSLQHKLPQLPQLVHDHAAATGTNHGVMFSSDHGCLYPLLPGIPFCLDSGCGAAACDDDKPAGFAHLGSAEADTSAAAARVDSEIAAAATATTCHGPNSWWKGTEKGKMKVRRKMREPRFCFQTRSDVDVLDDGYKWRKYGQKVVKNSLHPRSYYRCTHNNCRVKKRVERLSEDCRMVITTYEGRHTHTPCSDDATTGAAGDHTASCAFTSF
# The list shows a part of the results.
# Target: OsWRKY34 (Oryza sativa, UniProt Q0JBA9 1-250)
# Assay: protein-binding microarray (RPBM); PBS, 2% BSA, 51.3 ng/ul salmon testes DNA, 50 uM zinc acetate, 200 nM TF, 25 C, 1 h; high values mean tight binding
# Settings: protein: recombinant; tags: N-terminal polyhistidine and DsRed monomer fusion (pET32a); label: CyDye5-dUTP incorporated in the synthesized complementary strand; 3' TTTTT single-stranded linker to array surface; dsDNA, one strand shown
# In short: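 Transcription factors were each fused at the N-terminus to a polyhistidine tag plus DsRed and expressed in E. coli BL21-CodonPlus before Ni–NTA purification. Binding to a double-stranded custom Agilent array was carried out with 200 nM protein at 25 °C for 1 h in PBS, 2% BSA, salmon testes DNA and 50 µM zinc acetate. The binding signal is per-feature fluorescence intensity, in arbitrary units, on an Axon 4000B scanner.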
row,Sequence,binding signal
1,CCTCTACCTCTAGATCTATATATTGTCTGCTATCAGCTTACGGAGTCACCTAGTGCAG,8960 fluorescence intensity (a.u.)
2,AGCTCCGGTACTCGTCCTCTGCTTTGACCCGTCCACTAGACGGAGTCACCTAGTGCAG,10300 fluorescence intensity (a.u.)
3,CATAATATATCTTGTCAAACTTTTTCATATTTTTATTTAACGGAGTCACCTAGTGCAG,8192 fluorescence intensity (a.u.)
4,CACACCTTAGTACGTTATCTCTCTAATTGCTACATTTTAGCGGAGTCACCTAGTGCAG,8610 fluorescence intensity (a.u.)
5,ACCCACACACAAACGCCTCTACGTACACTCTACCCACACCCGGAGTCACCTAGTGCAG,8460 fluorescence intensity (a.u.)
6,TAGTGGGTGGGAGTGGGATAGGGCGGCCCAGAGGAGAATACGGAGTCACCTAGTGCAG,9000 fluorescence intensity (a.u.)
7,CGCCGCGGCGTCCTCCACGCCGCCTGTTGTTCTTGCCTCCCGGAGTCACCTAGTGCAG,8830 fluorescence intensity (a.u.)
8,CTGCTTTCTTTCCTGTGCTATGGATCGAATTTTCTCTTTACGGAGTCACCTAGTGCAG,9410 fluorescence intensity (a.u.)
9,GCCCGCCATACGATTTTACCAGTGGTAAAAACCTGTGTCTCGGAGTCACCTAGTGCAG,8580 fluorescence intensity (a.u.)
10,TGGATAGCAGTTCAATTCTCTTTTGGTTTATACCTTCCTACGGAGTCACCTAGTGCAG,11000 fluorescence intensity (a.u.)
11,CCCGTGCTTGTCGCTTCACGTTGTTTTCGCCTGTTCAAGACGGAGTCACCTAGTGCAG,10900 fluorescence intensity (a.u.)
12,TCCCATCCACAGTAACTTCGCTGTATCCCCATTCGCTGTCCGGAGTCACCTAGTGCAG,11000 fluorescence intensity (a.u.)
13,AGCCCGATTTTCTGTTCATTTCCACGTTTGATTTGGTGCACGGAGTCACCTAGTGCAG,8850 fluorescence intensity (a.u.)
14,ACGACCGTTCATTTCTTTCCCACTTCCCCGCGAGACCGCCCGGAGTCACCTAGTGCAG,10500 fluorescence intensity (a.u.)
15,GGGACGGGCTTTTTCCGACCGTTTTATCGGTAACCATATTCGGAGTCACCTAGTGCAG,8110 fluorescence intensity (a.u.)
16,AACTGGTTGGCATGTCCGCATCTAATCGACCTTAGGATCTCGGAGTCACCTAGTGCAG,9100 fluorescence intensity (a.u.)
17,TTTTGGGTCGCCAGCCTCCTGTCGTATCCGATGCAGTATTCGGAGTCACCTAGTGCAG,8290 fluorescence intensity (a.u.)
18,CCATTCCATACGTCCACATTCGTAGTTGTAGTATAGGTCTCGGAGTCACCTAGTGCAG,8360 fluorescence intensity (a.u.)
19,GCTTGACGACACCATTCGGATTGTTCCATCACTTCCATACCGGAGTCACCTAGTGCAG,9560 fluorescence intensity (a.u.)
20,GAAGCTAATCTCACATGTCCATTTGTTCTGATGAAGGTTACGGAGTCACCTAGTGCAG,8390 fluorescence intensity (a.u.)
21,GAGTAACTCAACTGTAATCAACCATTCGTCCATATATTGCCGGAGTCACCTAGTGCAG,8060 fluorescence intensity (a.u.)
22,AAGTTGGCAGGTCTGGTTGGCGTTACTTGGAGATAGGTTTCGGAGTCACCTAGTGCAG,10600 fluorescence intensity (a.u.)
23,TCAGTTGTTTGTCATGAGGAAAATTCCAAATCTCCTCCAACGGAGTCACCTAGTGCAG,8390 fluorescence intensity (a.u.)
24,TCCCTCGTGACCTCGTCTCGTCGGTTCGTCGCTCTCTCCGCGGAGTCACCTAGTGCAG,8280 fluorescence intensity (a.u.)
25,TGCTGACTTTGTTTGACTATGTTAAAGCCCTATATATTAGCGGAGTCACCTAGTGCAG,8130 fluorescence intensity (a.u.)
26,TCTCTCCTTTTCTTTTCTCTCACTTTCTTCCTCAGTCGGCCGGAGTCACCTAGTGCAG,8170 fluorescence intensity (a.u.)
27,GAAGACTCCGCCTCCGCGCTATTCTCTCCTCCTCACGTCTCGGAGTCACCTAGTGCAG,8060 fluorescence intensity (a.u.)

# Taken from above.
# For binding signal, AACTGGTTGGCATGTCCGCATCTAATCGACCTTAGGATCTCGGAGTCACCTAGTGCAG has the entry 9100 fluorescence intensity (a.u.)
# For binding signal, CACACCTTAGTACGTTATCTCTCTAATTGCTACATTTTAGCGGAGTCACCTAGTGCAG has the entry 8610 fluorescence intensity (a.u.)

# More records.

row,Sequence,binding signal
1,GCATCGTGGGGTGTGGGTGGCGGTTTTGGAGGGGAGAGGTCGGAGTCACCTAGTGCAG,23200 fluorescence intensity (a.u.)
2,TGCTGATACCGAGACACCTCATCCCTTTCACCGCGGTATCCGGAGTCACCTAGTGCAG,8910 fluorescence intensity (a.u.)
3,TCAAGGTTCCTTCGTCGCTTTTATTGCTTGATGATTCTCTCGGAGTCACCTAGTGCAG,8780 fluorescence intensity (a.u.)
4,GTTCTCCATCCCAACGACCGCTCGCCGTTTTCGTCGTGGGCGGAGTCACCTAGTGCAG,8150 fluorescence intensity (a.u.)
5,ATTTTTCCAGCGCCTTGCATGCCGTGTTCTTCTCGCCGCGCGGAGTCACCTAGTGCAG,10600 fluorescence intensity (a.u.)
6,CGGGCTAGTTTTGTTTGGTTTCATACAGGGTGTTGGGAGGCGGAGTCACCTAGTGCAG,8970 fluorescence intensity (a.u.)
7,AATACTCCCTCCGTCCCACTAAAAGTGTCGTTCTATGTCCCGGAGTCACCTAGTGCAG,8420 fluorescence intensity (a.u.)
8,GCCTCATTACATTTATATATTGTTTCAAATACTGTAGCAACGGAGTCACCTAGTGCAG,10800 fluorescence intensity (a.u.)
9,TATGAAATACGCACTCACCACCACTTTGTCATTTTGGCCACGGAGTCACCTAGTGCAG,9740 fluorescence intensity (a.u.)
10,ATGTGTGTGGGATATTACGCTGCTAAAACTTTGTGTTTCTCGGAGTCACCTAGTGCAG,11700 fluorescence intensity (a.u.)
11,GCGACGGCGGTGGTGGTGGGGTGTGGACGGCTAGGGTTTACGGAGTCACCTAGTGCAG,13500 fluorescence intensity (a.u.)
12,TAATTACGAACTCTATTATTTTCCTCCGATAATGCCCGCACGGAGTCACCTAGTGCAG,8150 fluorescence intensity (a.u.)
13,CTGCTGCTATGTTTTGATCTCGCAATTGCGTTTCGGGAGACGGAGTCACCTAGTGCAG,11300 fluorescence intensity (a.u.)
14,CTTTTTTTCCCTTGCAGCTACAGTGCGAATAGCAGCGAATCGGAGTCACCTAGTGCAG,8170 fluorescence intensity (a.u.)
15,CAACCCGCCACTCCACGAGTCTGGCGCTCTATCCTCCTTGCGGAGTCACCTAGTGCAG,10200 fluorescence intensity (a.u.)
16,GCTCTCTTGGCCTTTGGTTATCATGGTACATGTTTCCCTACGGAGTCACCTAGTGCAG,11600 fluorescence intensity (a.u.)
17,GTAGCGGCTGCGTTTCCTATTTTCCTTTTCTTTTTCTATTCGGAGTCACCTAGTGCAG,9520 fluorescence intensity (a.u.)
18,CTACTCATGGAACCCACCGGTCAGATCAATCTTCTTCCTCCGGAGTCACCTAGTGCAG,8290 fluorescence intensity (a.u.)
19,TTGTGCAGTCTCATCTACCTGTGACGTTTACAGTTTTGACCGGAGTCACCTAGTGCAG,8840 fluorescence intensity (a.u.)
20,TCACATTTCTTAAACGGTTAAACGGTATGTTTCTTTTATACGGAGTCACCTAGTGCAG,8920 fluorescence intensity (a.u.)
21,ACGTCATTGCCTACTTCCCATTTTCTTGTCCATAATGACACGGAGTCACCTAGTGCAG,9050 fluorescence intensity (a.u.)
22,ATCCCAAAACCCTACGCTGCCTCTGCCGCCGCCTCGCCGCCGGAGTCACCTAGTGCAG,8970 fluorescence intensity (a.u.)
23,ATTTTATTTGTCTGTTCGATAGTTTTCTTTGTTCACCTACCGGAGTCACCTAGTGCAG,9640 fluorescence intensity (a.u.)
24,ACTCTAGCTCATGCGCTCCCAGCCGCTGCCGCCGCTCGCCCGGAGTCACCTAGTGCAG,9270 fluorescence intensity (a.u.)
25,TCTGTTCCGCTTCAGTTTTTATTGAATCTATACTATGTTTCGGAGTCACCTAGTGCAG,8220 fluorescence intensity (a.u.)
26,TCTGTTTATCCTTATCTATTTATCCTTCCCCTGGTTATCCCGGAGTCACCTAGTGCAG,10100 fluorescence intensity (a.u.)
27,GTTCAATTTTTCGTTTTCAGTATTTGTATTGGGGTGCTGACGGAGTCACCTAGTGCAG,10800 fluorescence intensity (a.u.)
